# In the supplement of paper PMC3334620:
# In all, about 33,000 sequences were measured (“E-score (-0.5 to 0.5)”: median about -0.0059, highest 2% from about 0.26 on). The list shows a part of the results.
# Target: T1, Cin5 (UniProt P40917)
# T1 sequence: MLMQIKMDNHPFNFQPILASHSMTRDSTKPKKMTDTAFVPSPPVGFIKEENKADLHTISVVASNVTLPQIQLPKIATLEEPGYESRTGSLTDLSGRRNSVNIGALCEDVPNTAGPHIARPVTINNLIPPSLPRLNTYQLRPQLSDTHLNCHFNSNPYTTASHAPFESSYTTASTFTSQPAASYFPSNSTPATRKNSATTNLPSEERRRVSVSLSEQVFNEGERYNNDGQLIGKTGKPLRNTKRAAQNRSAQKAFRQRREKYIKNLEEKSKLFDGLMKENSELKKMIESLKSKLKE
# Assay: PBM E-score (8-mer binding enrichment) (E-score (-0.5 to 0.5)); higher = stronger / more preferred TF binding
# Conditions: protein concentration: 100 nM; construct: GST-full length
# Procedure: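 Universal 'all 10-mer' protein binding microarrays (Agilent AMADID 015681) probed with GST-tagged S. cerevisiae TFs (full-length or DBD) made by in vitro transcription/translation (PURExpress), about 100-200 nM. Bound TF was detected with fluorescent anti-GST. Each ungapped 8-mer (which stands for itself and its reverse complement) is scored by the PBM enrichment score (E-score), a modified Wilcoxon-Mann-Whitney statistic from -0.5 to +0.5, computed with the Universal PBM Analysis Suite. Scale: above 0.35 generally sequence-specific binding.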
row,Sequence,PBM E-score
1,CGGTCTAA,-0.191
2,TCTTGACA,0.0823
3,ACTAAGTG,0.016
4,GAGGAGCA,-0.209
5,GTTCTGAA,0.019
6,CGGAGCGC,-0.205
7,TAGGCTCA,-0.219
8,CAGCACCA,-0.119
9,GGTCCGGA,0.0234
10,CGATGTTC,-0.0506
11,TAATAATA,0.274
12,CTATACAA,0.00862
13,GCGGCGCA,-0.141
14,ATTGGTGC,0.134
15,GAACAAGA,0.212
16,CACAACTG,-0.188
17,CTTGGAAC,-0.188
18,GGCAGCAC,-0.202
19,CAGATCCG,-0.00778
20,AAATAGCC,0.00796
21,CCCCTTCA,-0.108
22,ACGTTAGT,0.13
23,ATCCAGAT,-0.083
24,TCAGCACA,0.102
25,ACGGATGA,0.141

row,Sequence,PBM E-score
1,GTTCGGAA,0.13
2,GGCTAGGA,-0.212
3,CCGATCGG,0.0299
4,AAATGCTT,0.0557
5,AATCCGCC,-0.0995
6,CTCCATGC,-0.0943
7,AGGGTGTG,-0.0723
8,GAGTCGGC,-0.195
9,CGTCAGAA,-0.204
10,CTCTTTCA,-0.00969
11,ACCTTCGT,-0.0448
12,AGTGGCGC,0.0474
13,GCGTACCA,-0.127
14,GGCAGACC,-0.334
15,ACTAGCCT,0.0336
16,ACACCCCT,-0.0458
17,ACCAGGAA,0.103
18,AACCTGGT,0.0147
19,ACCAACAG,-0.0139
20,ACCCCGCC,0.129
21,CCCGCCCA,0.169
22,CAATCTGA,2e-05
23,CAGCTCAC,-0.106
24,CTTTGTCC,-0.112
25,GCCTAAGC,-0.181

row,Sequence,PBM E-score
1,ACTGGAAG,-0.0828
2,GAACGCCC,-0.0594
3,ACGAGCGC,-0.114
4,AATTTGGC,-0.119
5,ATGTGATA,0.266
6,AATTACGT,0.278
7,ATCCCCCA,-0.456
8,CAGCAGTA,-0.0487
9,GCATTACC,-0.113
10,CAGCTCTC,-0.256
11,TAGGACTA,-0.0766
12,AAATCTTG,0.208
13,AAGACGGG,-0.104
14,AGACGGAC,-0.0722
15,GACCGTAA,-0.0305
16,CACAATAG,0.0337
17,TAGCATAA,0.0572
18,GGCCGGAA,-0.107
19,AACGTCGA,0.0559
20,CAAACGTG,-0.0397
21,ACATATGG,0.116
22,CTACAACC,-0.024
23,GGCGCAGA,0.028
24,ACGGTAGC,-0.178
25,CTCGCTTC,-0.112

row,Sequence,PBM E-score
1,CCATTGTC,0.0421
2,AAGTGCGG,0.0174
3,AGCCGTAG,0.00159
4,ATTGGGGG,-0.267
5,ACATGTTC,0.0124
6,GCCAGTAA,-0.0664
7,ACAATAGA,-0.00396
8,ATTCCAAA,-0.0656
9,CGCACTCA,0.0198
10,CGATAGAG,-0.169
11,TGACCACA,-0.0393
12,GGCCGGCA,0.0384
13,ACTTCTAG,-0.232
14,AAACATAG,-0.0763
15,CGTCAGGC,-0.039
16,GAGGCCGA,-0.0924
17,CTCCCACC,-0.238
18,CGTCTAGA,-0.253
19,ACTTTATG,0.0627
20,GCGTACGA,0.012
21,TAATAGGA,0.132
22,CGTGCTCA,0.0471
23,CCACGACG,-0.00069
24,GATGCCAA,-0.127
25,CGGCCGCC,-0.164

# An excerpt of the results above, as a working copy:
row,Sequence,PBM E-score
3,ACGAGCGC,-0.114
4,AATTTGGC,-0.119
5,ATGTGATA,0.266
6,AATTACGT,0.278
7,ATCCCCCA,-0.456
8,CAGCAGTA,-0.0487
9,GCATTACC,-0.113
10,CAGCTCTC,-0.256
11,TAGGACTA,-0.0766
12,AAATCTTG,0.208
13,AAGACGGG,-0.104
14,AGACGGAC,-0.0722
15,GACCGTAA,-0.0305
16,CACAATAG,0.0337
17,TAGCATAA,0.0572
18,GGCCGGAA,-0.107
19,AACGTCGA,0.0559
20,CAAACGTG,-0.0397
21,ACATATGG,0.116
22,CTACAACC,-0.024
23,GGCGCAGA,0.028
24,ACGGTAGC,-0.178
25,CTCGCTTC,-0.112
1,CCATTGTC,0.0421
2,AAGTGCGG,0.0174
3,AGCCGTAG,0.00159
4,ATTGGGGG,-0.267
5,ACATGTTC,0.0124
6,GCCAGTAA,-0.0664
7,ACAATAGA,-0.00396
8,ATTCCAAA,-0.0656
9,CGCACTCA,0.0198
10,CGATAGAG,-0.169
11,TGACCACA,-0.0393
12,GGCCGGCA,0.0384
13,ACTTCTAG,-0.232
14,AAACATAG,-0.0763
15,CGTCAGGC,-0.039
16,GAGGCCGA,-0.0924
17,CTCCCACC,-0.238
18,CGTCTAGA,-0.253
19,ACTTTATG,0.0627
20,GCGTACGA,0.012
21,TAATAGGA,0.132
22,CGTGCTCA,0.0471

# (continued)

row,Sequence,PBM E-score
1,AATTGTGC,0.124
2,CCTATCGA,0.0497
3,CCGCTCCC,-0.355
4,AGACTCAC,-0.217
5,ATAAGTAT,0.072
6,CAGGTTAG,-0.109
7,CTTCGTTA,-0.0412
8,ATATCTAG,0.0618
9,AGGGTTTA,-0.0833
10,TCTTTAAA,0.0238
11,ATTGAGGG,-0.042
12,CAGCGCCA,-0.192
13,CAATTATC,0.277
14,GTAGCGAA,0.0365
15,ATTCGCCG,0.205
16,CGCGTAAG,0.176
17,CGACACCA,-0.038
18,AAGGGGCG,-0.216
19,AAGACCAA,-0.00577
20,GCGCTTCA,0.0381
21,GAGACTGC,-0.0906
22,AAACTATG,-0.0142
23,ACGTTAAA,0.103
24,CCCTGCGC,-0.159
25,ACTGATTA,0.249

row,Sequence,PBM E-score
1,TCGTGTCA,-0.154
2,CGTGCTTC,0.162
3,CGTTAAAG,0.00626
4,CCACGTAG,-0.236
5,ATCACCCC,0.195
6,AACTTATC,0.131
7,GCGCGTCC,-0.0582
8,CCTAGCCG,-0.121
9,CTAAAAAC,-0.238
10,AGCCCAGA,0.0274
11,GAGGTTCA,0.0639
12,ACAACAGA,-0.145
13,ATAGGCAG,0.128
14,CGTACTTC,0.144
15,ACATATCG,0.0966
16,TACCCGAA,0.115
17,CGCACCTA,-0.0996
18,AAACCGAT,0.013
19,CAGCGGCC,-0.207
20,CGTTATAG,0.0167
21,ATGTGGTG,0.114
22,GCGGCTCA,0.0752
23,TGAGAAAA,0.129
24,GCACTGCC,-0.0335
25,CATTTCTC,0.124

row,Sequence,PBM E-score
1,AACCCCCA,-0.447
2,AGAGTGAA,0.0882
3,ACGACCAC,-0.103
4,AGAGGCGC,-0.168
5,ACGCCCCT,-0.216
6,GGCTAGAA,-0.107
7,CTAACAAG,-0.0036
8,ACGTTCCT,-0.0798
9,GGAATACA,0.0766
10,ACCAAGAG,-0.106
11,CGGCGCCC,-0.201
12,GAGCTCAA,-0.038
13,CGGCTCTC,-0.164
14,ATCGGGGA,0.102
15,AGCGGATA,-0.0233
16,CTTTGGGA,-0.161
17,CTGTACAG,-0.209
18,AGGATCCT,-0.134
19,CCCCACAA,0.0961
20,ACATTACG,0.184
21,ATGCTTGC,-0.141
22,CGAAGCTA,-0.03
